The results in this text go back to publication PMC5601625, “Defining a therapeutic window for kinase inhibitors in leukemia to avoid neutropenia” (Oncotarget, 2017).

Assay in all cases: Cell Titer Glo cell viability assay, 48 h
Holding throughout (format): cell-based

In one assay the test system is KU-812. To be noted: Homo sapiens, KU812, 48 h, read-out: IC50 of inhibitors on cell lines, m (mean). The protocol:
(§1) The activity of the kinase inhibitor collection against a panel of human leukemia cell lines was determined in cell viability assays run over 48 h using the Cell Titer Glo reagent.
(§2) Figure 1 Effects of kinase inhibition on the proliferation of leukemia cells A. Human leukemia cell lines were treated with duplicate serial dilutions of kinase inhibitors and the effect on cell viability was determined by Cell Titer Glo assay after 48 hours. […] HL-60 cells were treated with serial dilutions of mTor/PI3K B. and MEK C. inhibitors and the effect on cell viability was determined after 48 hours. Data shown is the mean ± SEM of 3 independent experiments.
(§3) Leukemia and lymphoma cell lines were grown in RPMI containing 10% FCS. […] Cell lines are routinely tested for mycoplasma and genotyped by short tandem repeating (STR) profiling to confirm identity.
(§4) Compounds were obtained from SynMedChem and dissolved at […] in DMSO. Serial 2-fold dilutions of each compound were prepared in DMSO using a liquid handling robot (Janus, Perkin Elmer). Each dilution (100nL) was transferred to duplicate tissue culture plates containing 50 μL of media containing 5 × 10^3 cells using a 384 well pin tool. Cells were incubated for 48 h and cell viability was determined using Cell Titer Glow reagents as described by the manufacturer (Promega). Data was acquired using a luminescent plate reader (Envision, Perkin Elmer) and analysed using Activity Base (IDBS, Guilford, UK) and visualised using Spotfire (TIBCO, Palo Alto, CA) as described previously. Each cell line was assayed in independent experiments on at least two occasions. […] Serial 2-fold dilutions of each compound were prepared in media containing 0.2% DMSO and 50 μl of each dilution was added to 10^4 cells in 50 μl of media. Cells were incubated for 48 h and cell viability was determined using Cell Titer Glow assay as described above.

The next assay relates to EOL-1. The conditions noted are these: Homo sapiens, EOL1, 48 h, read-out: IC50 of inhibitors on cell lines, m (mean). The protocol: as §1, §2, §3, §4
Another assay has as its system K562. To be noted: Homo sapiens, K562, 48 h, read-out: IC50 of inhibitors on cell lines, m (mean). As to the method:
as §1, §2, §3, §4

The test system of a further assay is HL-60. The conditions noted are these: Homo sapiens, HL-60, 48 h, read-out: IC50 of inhibitors on cell lines, m (mean). As to the method: as §1, §2, §3, §4
The test system of another assay is JURKAT. To be noted: Homo sapiens, read-out: IC50 of inhibitors on cell lines, m (mean). As to the method: as §1, §2, §3, §4
A further assay has as its system HEL.92.1.7. The conditions noted are these: Homo sapiens, HEL 92.1.7, 48 h, read-out: IC50 of inhibitors on cell lines, m (mean). As to the method:
as §1, §2, §3, §4

The next assay deals with U937. The conditions noted are these: Homo sapiens, U-937, 48 h, read-out: IC50 of inhibitors on cell lines, m (mean). As to the method: as §1, §2, §3, §4
A further assay concerns MV4;11. To be noted: Homo sapiens, MV4-11, 48 h, read-out: IC50 of inhibitors on cell lines, m (mean). As to the method:
as §1, §2, §3, §4

The next assay has as its system OCI-AML3. To be noted: Homo sapiens, OCI-AML-3, 48 h, read-out: IC50 of inhibitors on cell lines, m (mean). The protocol:
as §1, §2, §3, §4

The next assay relates to THP-1. The conditions noted are these: Homo sapiens, THP-1, 48 h, read-out: IC50 of inhibitors on cell lines, m (mean). The protocol: as §1, §2, §3, §4
The next assay deals with MOLT4. The conditions noted are these: Homo sapiens, MOLT-4, 48 h, read-out: IC50 of inhibitors on cell lines, m (mean). As to the method:
as §1, §2, §3, §4

A further assay deals with MEG-01. The conditions noted are these: Homo sapiens, MEG-01, 48 h, read-out: IC50 of inhibitors on cell lines, m (mean). As to the method:
as §1, §2, §3, §4

Consider `C[S+]([O-])c1ccc(-c2nc(-c3ccncc3)c(-c3ccc(F)cc3)[nH]2)cc1` (stereo not drawn) [SB203580], for which the IC50 (in general, the point on the concentration scale where inhibition reaches its midpoint) in the assay with KU-812 was more than 10 µM; with EOL-1 it was 1.45 µM; in the assay with K562 it was more than 10 µM; in the assay on HL-60 it was more than 10 µM; in the assay on JURKAT it was more than 10 µM; in the assay on HEL.92.1.7, more than 10 µM. Besides, the IC50 in the assay with U937, with MV4;11, in the assay with OCI-AML3, with THP-1, in the assay on MOLT4 and in the assay with MEG-01 was more than 10 µM throughout.
